Percent effect of library compounds

Amino acid sequences for entries named in this document (tags omitted).
UniProt P9WPC5, whole entry: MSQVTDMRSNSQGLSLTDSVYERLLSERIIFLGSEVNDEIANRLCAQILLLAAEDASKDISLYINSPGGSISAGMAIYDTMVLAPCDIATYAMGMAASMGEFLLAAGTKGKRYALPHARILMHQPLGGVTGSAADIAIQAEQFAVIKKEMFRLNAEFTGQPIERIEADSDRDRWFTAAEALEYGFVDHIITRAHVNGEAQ
UniProt P9WPC3, whole entry partner: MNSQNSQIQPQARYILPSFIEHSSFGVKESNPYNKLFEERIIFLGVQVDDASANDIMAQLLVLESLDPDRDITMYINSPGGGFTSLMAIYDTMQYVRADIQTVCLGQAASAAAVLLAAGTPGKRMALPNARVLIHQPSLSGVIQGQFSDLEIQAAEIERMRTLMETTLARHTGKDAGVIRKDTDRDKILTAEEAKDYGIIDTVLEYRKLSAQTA

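Protease assay of ClpP1P2, read by the AMC dye that it sets free. Target: ClpP1P2, Mycobacterium tuberculosis (UniProt P9WPC5 and UniProt P9WPC3). Compounds at 50 µM. Higher reads as stronger inhibition, judged from the few compounds that gave an IC50. Most other retested compounds had strongly negative values. Size under these conditions: about 69,000 compounds, about 10 of them at 50% or above in at least one test.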

Each number is a percent effect as filed. The controls that fix the scale are not given in the record; negative values are as filed. The compounds are a random part of those screened.

With c1ccc2c(c1)CC(n1ccnc1-c1cc3n(n1)CCNC3)CO2 (centres unmarked) the screen gave -29.46%. COc1cccc(C(O)CNC(=O)CC2CCCCC2)c1 (centres unmarked) gave 1.562%. For c1ccc(COC[C@H]2CC[C@H]3[C@H](CCN3c3ncccn3)O2)nc1 the result was -3.241%. Result for CN(CCN1CCCCCC1)C(=O)c1cc(CN2CCC(O)CC2)on1 was -5.624%. Result for CCC(CNC(=O)c1ccccc1Br)N1CCc2ccccc2C1 (centres unmarked) was 2.346%. For Cc1noc(CNc2ccc(OC(F)F)cc2OC(F)F)n1 the result was 4.098%. Result for COCC(=O)NC(C)Cc1cccc(OC)c1 (centres unmarked) was 23.12%.

c1cc(CO[C@@H]2CN(Cc3ccoc3)[C@@H]3CCCO[C@@H]32)ccn1 read 3.808%. Result for Cc1ccnc(C2CN(c3ncccn3)C2)n1 was -9.673%. With CC(C)(C)OC(=O)NC(C)(C)c1noc(CSc2nncs2)n1 the screen gave 4.267%. Result for COCCNC(=O)NCCS(=O)(=O)N1CCN(c2cccc(C)c2)CC1 was -0.7504%. With CC1=Nc2c(c(=O)[nH]n2C(C)C)C(c2ccc3nccnc3c2)S1 (centres unmarked) the screen gave -1.921%. Cc1nn(CC(C)C)c(N(C)C)c1CNCCCNS(C)(=O)=O read 11.95%. For Cc1noc(-c2ccc(N[C@H]3CCCCNC3=O)nc2)n1 the result was -4.822%.

Result for CN1CCOC(CNC(=O)Cc2coc(-c3ccccc3)n2)C1 (centres unmarked) was -11.01%. CC(=O)c1ccc(C(=O)N2C[C@@H]3CC[C@H](C2)N(Cc2ccccc2)C3)s1 read 11.58%. With O=C(c1cccc(Oc2ccccc2)c1)N1CCCC(O)(CO)CC1 (centres unmarked) the screen gave 0.08709%. O=C(Nc1cnccn1)[C@@H]1C[C@H]2OCC[C@H]2N(Cc2ccsc2)C1 gave 4.045%. COCCCN1CC2(CCN(C(=O)c3ccc(=O)n(C)c3)CC2)CC1=O read -5.202%. COC(=O)CCCn1ccnc1-c1ccc(OC)c(F)c1F gave 4.566%. c1nc(CNC2CCOCC2)c2n1CCCN(CC1CC1)C2 gave -3.892%.

With CCOC[C@]12COC[C@H]1CN(Cc1cccc(OC)c1)C2 the screen gave -5.535%. For CSCCC(=O)NCc1cc2n(n1)CCN(C(=O)N(C)C)C2 the result was -1.401%. With CNC(=O)CN1CCC(NC(=O)N(C)Cc2c(C)noc2C)CC1 the screen gave 10.47%. For OC1(CN2CCOC(Cn3cccn3)C2)CCCCC1 (centres unmarked) the result was 3.345%. O=c1[nH]nc(SCC2CCCO2)n1C1CC1 (centres unmarked) gave 10.75%. COC(=O)c1cc(C(=O)N2CCc3ccc(F)cc3C2C)ccn1 (centres unmarked) read -19.68%. c1ccc(-c2nnc3sc(CCN4CCCCCC4)nn23)cc1 gave -5.818%.

Result for CCc1[nH]c2c(CNc3cc(C)nc(NC)n3)cc(C)cc2c1C was 5.326%. Cc1cc(-c2cnc(N3CCC(O)CC3)nc2-c2cccnc2C)on1 gave -6.29%. With Cc1nc(C2CCCN2CCCn2c(=O)oc3ccccc32)no1 (centres unmarked) the screen gave 8.632%. NC(=O)c1ccc(-n2ccnc2-c2cccc(O)c2)cc1N1CCCC1 read 3.633%. CCSc1nsc(NC(=O)COc2ccc3c(c2)OCO3)n1 read 1.448%. Cc1ccc(NC2CCN(C(=O)CCNc3ncccn3)CC2)nn1 gave -13.5%. For CC(C)Cn1cnnc1C1CCCN1C(=O)OC(C)(C)C (centres unmarked) the result was 8.326%.

3 of the entries, repeated:

| compound | percent effect |
|---|---|
| `O=C(c1cccc(Oc2ccccc2)c1)N1CCCC(O)(CO)CC1` (centres unmarked) | 0.08709 |
| `Cc1ccnc(C2CN(c3ncccn3)C2)n1` | -9.673 |
| `CN(CCN1CCCCCC1)C(=O)c1cc(CN2CCC(O)CC2)on1` | -5.624 |

Measurements from “University of Dundee, Small-Polar-MMV Screening Library” (2021), ChEMBL document CHEMBL3988442.